Measured values reported in patent US20140315857A1, “N- (4 -QUINOLINYLMETHYL) SULFONAMIDE DERIVATIVES AND THEIR USE AS ANTHELMINTICS” (E I DU PONT DE NEMOURS AND COMPANY, priority 2011, published 2014).
Some entries share one result that the patent states for a list of compounds.

Tested on: Haemonchus contortus
Experiment: Test C: Haemonchus contortus adult worm burdens in infected lambs after oral gavage
Type: in vivo
Conditions: lambs infected with 10,000 L3 larvae; gavaged 5.0 mg/kg body weight on day 0; evaluated day 8 relative to vehicle-dosed controls

Compound | reduction of adult worms [%]
O=S(=O)(NCc1ccnc2ccccc12)c1ccc(C#CC2CC2)cc1 [Compound 2, 4-(2-cyclopropylethynyl)-N-(4-quinolinylmethyl)benzenesulfonamide] | ≥ 75
O=S(=O)(NCc1ccnc2ccccc12)c1ccc(C#Cc2ccccn2)cc1 [Compound 4, 4-[2-(2-pyridinyl)ethynyl]-N-(4-quinolinylmethyl)benzenesulfonamide] | ≥ 75
